Measurements published in patent US20190016815A1 (TRACON PHARMACEUTICALS, published 2019).
These are yes or no findings as the source states them, for the method shown. Some binding calls cover weakened binding; strength is not graded here.

T1: human CD105 (R&D Systems Cat. No. 1097-EN) (human) (UniProt P17813)
T1 sequence (looked up): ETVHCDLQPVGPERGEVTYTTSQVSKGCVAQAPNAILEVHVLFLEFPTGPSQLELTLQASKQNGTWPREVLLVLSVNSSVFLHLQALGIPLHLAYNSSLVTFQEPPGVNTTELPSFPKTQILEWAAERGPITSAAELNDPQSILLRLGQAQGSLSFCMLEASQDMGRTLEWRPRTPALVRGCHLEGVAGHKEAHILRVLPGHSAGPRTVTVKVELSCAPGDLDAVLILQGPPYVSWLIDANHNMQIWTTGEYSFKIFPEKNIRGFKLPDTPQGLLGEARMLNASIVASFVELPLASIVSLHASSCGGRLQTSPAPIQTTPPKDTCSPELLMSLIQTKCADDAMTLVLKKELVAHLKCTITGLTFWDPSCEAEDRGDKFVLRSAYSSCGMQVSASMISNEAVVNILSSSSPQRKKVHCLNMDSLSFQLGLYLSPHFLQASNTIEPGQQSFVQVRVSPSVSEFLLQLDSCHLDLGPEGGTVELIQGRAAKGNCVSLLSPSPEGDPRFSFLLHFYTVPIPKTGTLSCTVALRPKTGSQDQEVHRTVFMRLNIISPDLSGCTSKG


Biological target: T1, human CD105 (R&D Systems Cat. No. 1097-EN) (human)
Test: competition ELISA on human CD105 captured on the plate (100 ng/ml); competitor: biotinylated chimeric anti-CD105 at 6.25 ng/ml; streptavidin-HRP, TMB, OD450

Binder	binding
VK2AAVH1A2 (antibody, V domains shown) VH: EVQLVESGGGLVKPGGSLRLSCAASGFTFSDAWMDWVRQAPGKGLEWVGEARSKASNHATYYAESVKGRFTISRDDSKNTLYLQMNSLKTEDTAVYYCTRWRRFFDSWGQGTLVTVSS VL: DIQLTQSPSSLSASVGDRATITCRASSSVSYMHWYQQKPGKAPKPWAYATSNLASGVPSRFSGSGSGTDYTLTISSLQPEDFATYYCQQWSSNPLTFGGGTKVEIK	binds
VK2SAVH1A2 (antibody, V domains shown) VH: EVQLVESGGGLVKPGGSLRLSCAASGFTFSDAWMDWVRQAPGKGLEWVGEARSKASNHATYYAESVKGRFTISRDDSKNTLYLQMNSLKTEDTAVYYCTRWRRFFDSWGQGTLVTVSS VL: DIQLTQSPSSLSASVGDRVTISCRASSSVSYMHWYQQKPGKAPKPWAYATSNLASGVPSRFSGSGSGTDYTLTISSLQPEDFATYYCQQWSSNPLTFGGGTKVEIK	binds
VK2SSVH1A2 (antibody, V domains shown) VH: EVQLVESGGGLVKPGGSLRLSCAASGFTFSDAWMDWVRQAPGKGLEWVGEARSKASNHATYYAESVKGRFTISRDDSKNTLYLQMNSLKTEDTAVYYCTRWRRFFDSWGQGTLVTVSS VL: DIQLTQSPSSLSASVGDRVTISCRASSSVSYMHWYQQKPGKAPKPWIYASSNLASGVPSRFSGSGSGTDYTLTISSLQPEDFATYYCQQWSSNPLTFGGGTKVEIK	binds
VK2SAVH1A (antibody, V domains shown) VH: EVQLVESGGGLVKPGGSLRLSCAASGFTFSDAWMDWVRQAPGKGLEWVAEIRSKASNHATYYAESVKGRFTISRDDSKNTLYLQMNSLKTEDTAVYYCTRWRRFFDSWGQGTLVTVSS VL: DIQLTQSPSSLSASVGDRVTISCRASSSVSYMHWYQQKPGKAPKPWAYATSNLASGVPSRFSGSGSGTDYTLTISSLQPEDFATYYCQQWSSNPLTFGGGTKVEIK	binds
